# Measured values: paper PMC10081994
# Results are given in words; binding and its absence hold for the method and conditions named. Binding seen in cells or lysates may run through a third protein. Some entries that bind do so weakly or less than the wild type. For some of these results: Tags and fused reporters may be left off the sequences shown.
# T1: Flag-BmVasa ΔC mutant (Bombyx mori) (UniProt O01378)
# T1 sequence: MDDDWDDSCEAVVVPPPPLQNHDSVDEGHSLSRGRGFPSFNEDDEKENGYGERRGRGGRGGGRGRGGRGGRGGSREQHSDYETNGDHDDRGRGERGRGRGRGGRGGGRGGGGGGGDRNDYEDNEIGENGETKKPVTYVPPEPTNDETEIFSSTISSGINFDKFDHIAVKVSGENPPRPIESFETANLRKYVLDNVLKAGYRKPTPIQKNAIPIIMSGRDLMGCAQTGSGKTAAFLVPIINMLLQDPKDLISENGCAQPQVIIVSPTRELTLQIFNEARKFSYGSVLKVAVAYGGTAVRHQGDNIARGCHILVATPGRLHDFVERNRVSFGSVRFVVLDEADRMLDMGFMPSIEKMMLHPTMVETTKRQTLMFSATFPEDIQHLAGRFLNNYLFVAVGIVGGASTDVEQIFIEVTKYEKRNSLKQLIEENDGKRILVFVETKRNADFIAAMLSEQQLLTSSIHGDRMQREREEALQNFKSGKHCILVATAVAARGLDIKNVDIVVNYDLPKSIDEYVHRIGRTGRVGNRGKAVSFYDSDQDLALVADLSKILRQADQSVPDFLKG
# T2: Flag-BmVasa ΔN mutant (Bombyx mori) (UniProt O01378)
# T2 sequence: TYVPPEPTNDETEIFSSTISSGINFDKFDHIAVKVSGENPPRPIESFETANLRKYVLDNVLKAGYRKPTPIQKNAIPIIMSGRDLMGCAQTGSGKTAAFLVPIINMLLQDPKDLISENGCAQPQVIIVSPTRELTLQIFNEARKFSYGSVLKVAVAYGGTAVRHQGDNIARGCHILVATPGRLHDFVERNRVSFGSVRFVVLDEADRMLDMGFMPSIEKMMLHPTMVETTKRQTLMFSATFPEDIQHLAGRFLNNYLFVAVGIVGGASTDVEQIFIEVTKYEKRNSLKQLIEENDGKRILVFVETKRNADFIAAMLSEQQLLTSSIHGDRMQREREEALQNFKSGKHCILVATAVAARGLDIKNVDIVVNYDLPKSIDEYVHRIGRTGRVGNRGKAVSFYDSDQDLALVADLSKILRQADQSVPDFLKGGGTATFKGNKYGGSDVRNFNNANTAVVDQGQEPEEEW
# Assays:
# Assay in all cases: co-IP; BmN4 lysates in Co-IP buffer (30 mM HEPES-KOH pH 7.3, 150 mM potassium acetate, 5 mM magnesium acetate, 5 mM DTT, 0.1% NP-40); anti-Flag M2 antibody on Dynabeads Protein G, 4 °C, 1 h; three washes; western blotting with anti-Myc and anti-Flag
# [1] = target: T1, Flag-BmVasa ΔC mutant (Bombyx mori)
# [2] = target: Bombyx mori Vasa (BmVasa) WT (Bombyx mori) (UniProt O01378)
# [3] = target: T2, Flag-BmVasa ΔN mutant (Bombyx mori)
# [4] = target: BmVasa R470A mutant (Bombyx mori) (UniProt O01378)
binding [1],binding [2],binding [3],binding [4],Binder
binds,binds,no binding,–,"Bombyx mori Vasa (BmVasa) WT (protein, UniProt O01378 1-601) MDDDWDDSCEAVVVPPPPLQNHDSVDEGHSLSRGRGFPSFNEDDEKENGYGERRGRGGRGGGRGRGGRGGRGGSREQHSDYETNGDHDDRGRGERGRGRGRGGRGGGRGGGGGGGDRNDYEDNEIGENGETKKPVTYVPPEPTNDETEIFSSTISSGINFDKFDHIAVKVSGENPPRPIESFETANLRKYVLDNVLKAGYRKPTPIQKNAIPIIMSGRDLMGCAQTGSGKTAAFLVPIINMLLQDPKDLISENGCAQPQVIIVSPTRELTLQIFNEARKFSYGSVLKVAVAYGGTAVRHQGDNIARGCHILVATPGRLHDFVERNRVSFGSVRFVVLDEADRMLDMGFMPSIEKMMLHPTMVETTKRQTLMFSATFPEDIQHLAGRFLNNYLFVAVGIVGGASTDVEQIFIEVTKYEKRNSLKQLIEENDGKRILVFVETKRNADFIAAMLSEQQLLTSSIHGDRMQREREEALQNFKSGKHCILVATAVAARGLDIKNVDIVVNYDLPKSIDEYVHRIGRTGRVGNRGKAVSFYDSDQDLALVADLSKILRQADQSVPDFLKGGGTATFKGNKYGGSDVRNFNNANTAVVDQGQEPEEEW"
–,–,–,binds,"BmVasa R470A mutant (protein, UniProt O01378 1-601) MDDDWDDSCEAVVVPPPPLQNHDSVDEGHSLSRGRGFPSFNEDDEKENGYGERRGRGGRGGGRGRGGRGGRGGSREQHSDYETNGDHDDRGRGERGRGRGRGGRGGGRGGGGGGGDRNDYEDNEIGENGETKKPVTYVPPEPTNDETEIFSSTISSGINFDKFDHIAVKVSGENPPRPIESFETANLRKYVLDNVLKAGYRKPTPIQKNAIPIIMSGRDLMGCAQTGSGKTAAFLVPIINMLLQDPKDLISENGCAQPQVIIVSPTRELTLQIFNEARKFSYGSVLKVAVAYGGTAVRHQGDNIARGCHILVATPGRLHDFVERNRVSFGSVRFVVLDEADRMLDMGFMPSIEKMMLHPTMVETTKRQTLMFSATFPEDIQHLAGRFLNNYLFVAVGIVGGASTDVEQIFIEVTKYEKRNSLKQLIEENDGKRILVFVETKRNADFIAAMLSEQQLLTSSIHGDRMQREAEEALQNFKSGKHCILVATAVAARGLDIKNVDIVVNYDLPKSIDEYVHRIGRTGRVGNRGKAVSFYDSDQDLALVADLSKILRQADQSVPDFLKGGGTATFKGNKYGGSDVRNFNNANTAVVDQGQEPEEEW"
